Some of the results follow.
Assays:
Assay in all cases: glycan array binding signal (z-score within array); higher = stronger binding
Details in all cases: glycan notation: IUPAC condensed, linker removed
[1] = target: Gal3S(b1-3)[Fuc(a1-4)]GlcNAc
In short: (§1)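 Negative Z-scores can be read as non-binding. The Z-score is calculated within each array and then averaged across arrays of one protein sequence at different concentrations or buffers and across linkers. Arrays, 3228 in all, were curated from the Consortium for Functional Glycomics database and kept only where the protein sequence was available.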

[2] = target: Gal3S(b1-4)Glc
In short: as §1

[3] = target: Gal3S(b1-4)Glc6S
In short: as §1

[4] = target: Gal3S(b1-4)GlcNAc
In short: as §1

[5] = target: Gal3S(b1-4)GlcNAc6S
In short: as §1

[6] = target: Gal3S(b1-4)[Fuc(a1-3)]Glc
In short: as §1

[7] = target: Gal3S(b1-4)[Fuc(a1-3)]Glc6S
In short: as §1

[8] = target: Gal3S(b1-4)[Fuc(a1-3)]GlcNAc
In short: as §1

[9] = target: Gal3S(b1-4)[Fuc(a1-3)]GlcNAc6S
In short: as §1

[10] = target: Gal3S4S(b1-4)GlcNAc
In short: as §1

[11] = target: Gal3S6S(b1-4)GlcNAc
In short: as §1

[12] = target: Gal3S6S(b1-4)GlcNAc6S
In short: as §1

[13] = target: Gal4S(b1-4)GlcNAc
In short: as §1

[14] = target: Gal4S6S(b1-4)GlcNAc
In short: as §1

[15] = target: Gal6P(b1-4)GlcNAc
In short: as §1

[16] = target: Gal6S(b1-3)GlcNAc
In short: as §1

[17] = target: Gal6S(b1-3)GlcNAc6S
In short: as §1

[18] = target: Gal6S(b1-4)Glc
In short: as §1

[19] = target: Gal6S(b1-4)Glc6S
In short: as §1

[20] = target: Gal6S(b1-4)GlcNAc
In short: as §1

[21] = target: Gal6S(b1-4)GlcNAc6S
In short: as §1

[22] = target: GalNAc(a1-3)Gal
In short: as §1

[23] = target: GalNAc(a1-3)GalNAc
In short: as §1

[24] = target: GalNAc(a1-3)GalNAc(b1-3)Gal(a1-4)Gal(b1-4)Glc
In short: as §1

[25] = target: GalNAc(a1-3)GalNAc(b1-3)Gal(a1-4)Gal(b1-4)GlcNAc
In short: as §1

[26] = target: GalNAc(b1-3)Gal
In short: as §1

[27] = target: GalNAc(b1-3)Gal(a1-4)Gal(b1-4)GlcNAc
In short: as §1

[28] = target: GalNAc(b1-3)Gal(a1-4)Gal(b1-4)GlcNAc(b1-3)Gal(b1-4)Glc
In short: as §1

[29] = target: GalNAc(b1-3)Gal(a1-6)Gal(b1-4)Glc
In short: as §1

[30] = target: GalNAc(b1-3)GalNAc
In short: as §1

[31] = target: GalNAc(b1-3)GlcNAc
In short: as §1

[32] = target: GalNAc(b1-4)Gal(b1-4)Glc
In short: as §1

[33] = target: GalNAc(b1-4)GlcNAc
In short: as §1

[34] = target: GalNAc(b1-4)GlcNAc(b1-2)Man
In short: as §1

[35] = target: GalNAc(b1-4)GlcNAc(b1-2)Man(a1-3)[GalNAc(b1-4)GlcNAc(b1-2)Man(a1-6)]Man(b1-4)GlcNAc(b1-4)GlcNAc
In short: as §1

[36] = target: GalNAc(b1-4)GlcNAc(b1-3)GalNAc(b1-4)GlcNAc
In short: as §1

[37] = target: GalNAc(b1-4)GlcNAc6S
In short: as §1

[38] = target: GalNAc(b1-6)GalNAc
In short: as §1

[39] = target: GalNAc3S(b1-4)GlcNAc
In short: as §1

[40] = target: GalNAc3S(b1-4)GlcNAc3S
In short: as §1

[41] = target: GalNAc3S(b1-4)[Fuc(a1-3)]GlcNAc
In short: as §1

[42] = target: GalNAc4S6S(b1-4)GlcNAc
In short: as §1

[43] = target: GalNAc6S(b1-4)GlcNAc
In short: as §1

[44] = target: Glc(a1-4)Glc
In short: as §1

[45] = target: Glc(a1-4)Glc(a1-4)Glc(a1-4)Glc
In short: as §1

B1: BabA (Helicobacter pylori), O52269_HELPY (protein)
chain: AEDDGFYMSAGYQIGEAAQMVKNTKGIQELSDNYENLSNLLTRYSTLNTLIKLSADPSAVNAARENLGASAKNLIGDTKNSPAYQAVLLAINAAVGFWNVVGYVTQCGGNANGQKSTSSTTIFNNEPGYRSTSITCSLNGHMPGYYGPMSIENFKKLNEAYQILQTALKNGLPALKENNGTVNVTYSYTCSGEGNDNCSLQTTGVTNQNNGTKTETQTIDGKSVTTTISSKVVDSQ
What does the source list for B1?
glycan array binding signal (z-score) [1]: 0.504; glycan array binding signal (z-score) [2]: 0.988; glycan array binding signal (z-score) [3]: 0.49; glycan array binding signal (z-score) [4]: 0.257; glycan array binding signal (z-score) [5]: 0.971; glycan array binding signal (z-score) [6]: 0.59; glycan array binding signal (z-score) [7]: 0.263; glycan array binding signal (z-score) [8]: -0.01; glycan array binding signal (z-score) [9]: -0.11; glycan array binding signal (z-score) [10]: 0.144; glycan array binding signal (z-score) [11]: 0.985; glycan array binding signal (z-score) [12]: 0.088; glycan array binding signal (z-score) [13]: 0.875; glycan array binding signal (z-score) [14]: 0.153; glycan array binding signal (z-score) [15]: -0.582; glycan array binding signal (z-score) [16]: -0.637; glycan array binding signal (z-score) [17]: 0.263; glycan array binding signal (z-score) [18]: -0.073; glycan array binding signal (z-score) [19]: -0.314; glycan array binding signal (z-score) [20]: 0.113; glycan array binding signal (z-score) [21]: -0.625; glycan array binding signal (z-score) [22]: -0.177; glycan array binding signal (z-score) [23]: 0.112; glycan array binding signal (z-score) [24]: -0.709; glycan array binding signal (z-score) [25]: -0.582; glycan array binding signal (z-score) [26]: -0.825; glycan array binding signal (z-score) [27]: -0.582; glycan array binding signal (z-score) [28]: -0.142; glycan array binding signal (z-score) [29]: -0.673; glycan array binding signal (z-score) [30]: -0.807; glycan array binding signal (z-score) [31]: -0.637; glycan array binding signal (z-score) [32]: 0.326; glycan array binding signal (z-score) [33]: -0.141; glycan array binding signal (z-score) [34]: -0.646; glycan array binding signal (z-score) [35]: -0.429; glycan array binding signal (z-score) [36]: 0.917; glycan array binding signal (z-score) [37]: 0.344; glycan array binding signal (z-score) [38]: -0.709; glycan array binding signal (z-score) [39]: -0.482; glycan array binding signal (z-score) [40]: -0.7; glycan array binding signal (z-score) [41]: -0.655; glycan array binding signal (z-score) [42]: -0.391; glycan array binding signal (z-score) [43]: -0.764; glycan array binding signal (z-score) [44]: 0.962; glycan array binding signal (z-score) [45]: 0.344

From the supplement of paper PMC8728848
